Measurements published in PMC4996943.
These are yes or no findings as the source states them, for the method shown. Binding seen in cells or lysates may run through a third protein. Where a sequence is shown, tags or fusion partners need not be part of it.

Target: HisMax-p53 (human), P04637
Experiment: pull-down; HEK293T cells co-expressing HisMax-p53 and HA-EFP (or C13/16S) or Myc-HERC5; lysates in buffer-A with 10 mM imidazole; Ni2+-NTA agarose 1 h at 4 °C, washed with 20 mM imidazole; immunoblot with anti-HA or anti-Myc
Settings: remark: other sources report otherwise

B1: Myc-HERC5, Q9UII4 1-1024 (enzyme)
chain: MERRSRRKSRRNGRSTAGKAAATQPAKSPGAQLWLFPSAAGLHRALLRRVEVTRQLCCSPGRLAVLERGGAGVQVHQLLAGSGGARTPKCIKLGKNMKIHSVDQGAEHMLILSSDGKPFEYDNYSMKHLRFESILQEKKIIQITCGDYHSLALSKGGELFAWGQNLHGQLGVGRKFPSTTTPQIVEHLAGVPLAQISAGEAHSMALSMSGNIYSWGKNECGQLGLGHTESKDDPSLIEGLDNQKVEFVACGGSHSALLTQDGLLFTFGAGKHGQLGHNSTQNELRPCLVAELVGYRVTQIACGRWHTLAYVSDLGKVFSFGSGKDGQLGNGGTRDQLMPLPVKVSSSEELKLESHTSEKELIMIAGGNQSILLWIKKENSYVNLKRTIPTLNEGTVKRWIADVETKRWQSTKREIQEIFSSPACLTGSFLRKRRTTEMMPVYLDLNKARNIFKELTQKDWITNMITTCLKDNLLKRLPFHSPPQEALEIFFLLPECPMMHISNNWESLVVPFAKVVCKMSDQSSLVLEEYWATLQESTFSKLVQMFKTAVICQLDYWDESAEENGNVQALLEMLKKLHRVNQVKCQLPESIFQVDELLHRLNFFVEVCRRYLWKMTVDASENVQCCVIFSHFPFIFNNLSKIKLLHTDTLLKIESKKHKAYLRSAAIEEERESEFALRPTFDLTVRRNHLIEDVLNQLSQFENEDLRKELWVSFSGEIGYDLGGVKKEFFYCLFAEMIQPEYGMFMYPEGASCMWFPVKPKFEKKRYFFFGVLCGLSLFNCNVANLPFPLALFKKLLDQMPSLEDLKELSPDLGKNLQTLLDDEGDNFEEVFYIHFNVHWDRNDTNLIPNGSSITVNQTNKRDYVSKYINYIFNDSVKAVYEEFRRGFYKMCDEDIIKLFHPEELKDVIVGNTDYDWKTFEKNARYEPGYNSSHPTIVMFWKAFHKLTLEEKKKFLVFLTGTDRLQMKDLNNMKITFCCPESWNERDPIRALTCFSVLFLPKYSTMETVEEALQEAINNNRGFG
- binding: no binding
